Assay results from the supplement of paper PMC4604168 (melanoma cell lines).
The list shows a part of the results. Single values are uncertain, as repeats are few or missing.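 The apoptosis fraction was the count of cleaved-PARP antibody-stained nuclei relative to all DNA-stained nuclei, imaged in 1,536-well plates. Screening doses were set so most cells survived, and baseline and induced cleaved-PARP levels vary greatly across cell lines.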

system: RPMI7951; test: cleaved PARP positive nuclei fraction relative to DMSO control; melanoma cells; higher = more apoptosis; conditions: library dose: low library concentration; 72 h

| SMILES | cleaved PARP positive nuclei fraction |
| --- | --- |
| COc1cc([C@@H]2c3cc4c(cc3[C@@H](O[C@@H]3O[C@@H]5CO[C@@H](C)O[C@H]5[C@H](O)[C@H]3O)[C@H]3COC(=O)[C@H]23)OCO4)cc(OC)c1O [etoposide] + CO[C@H]1C[C@@H]2CC[C@@H](C)[C@@](O)(O2)C(=O)C(=O)N2CCCC[C@H]2C(=O)O[C@H]([C@H](C)C[C@@H]2CC[C@@H](OCCO)[C@H](OC)C2)CC(=O)[C@H](C)/C=C(\C)[C@@H](O)[C@@H](OC)C(=O)[C@H](C)C[C@H](C)/C=C/C=C/C=C/1C [everolimus] (first compound 0.02 µM, partner dose 0.02 µM) | 58.2% |
| Cc1cn(-c2cc(NC(=O)c3ccc(C)c(Nc4nccc(-c5cccnc5)n4)c3)cc(C(F)(F)F)c2)cn1 [nilotinib] + Nc1cccc2c1CN(C1CCC(=O)NC1=O)C2=O [lenalidomide] (first compound 0.2 µM, partner dose 1 µM) | 103% |
| Cc1ccc(Nc2nccc(N(C)c3ccc4c(C)n(C)nc4c3)n2)cc1S(N)(=O)=O [Pazopanib] + CNC(=O)c1cc(Oc2ccc(NC(=O)Nc3ccc(Cl)c(C(F)(F)F)c3)cc2)ccn1 [sorafenib] (first compound 0.4 µM, partner dose 0.4 µM) | 159% |
| O=c1[nH]nc(Sc2ncc([N+](=O)[O-])s2)n1-c1ccc2c(c1)OCCO2 + CS(=O)(=O)c1ccc(C(=O)Nc2ccc(Cl)c(-c3ccccn3)c2)c(Cl)c1 [vismodegib] (first compound 0.2 µM, partner dose 1 µM) | 49% |

system: RVH-421; test: as above; conditions: library dose: low library concentration; 72 h

| SMILES | cleaved PARP positive nuclei fraction |
| --- | --- |
| Cc1cn(-c2cc(NC(=O)c3ccc(C)c(Nc4nccc(-c5cccnc5)n4)c3)cc(C(F)(F)F)c2)cn1 [nilotinib] + CNC(=O)c1cc(Oc2ccc(NC(=O)Nc3ccc(Cl)c(C(F)(F)F)c3)cc2)ccn1 [sorafenib] (first compound 0.2 µM, partner dose 0.4 µM) | 50.3% |
| O=c1[nH]nc(Sc2ncc([N+](=O)[O-])s2)n1-c1ccc2c(c1)OCCO2 + Nc1nc(F)nc2c1ncn2[C@@H]1O[C@H](CO)[C@@H](O)[C@@H]1O [fludarabine] (first compound 0.2 µM, partner dose 0.2 µM) | 107% |
| Cc1cn(-c2cc(NC(=O)c3ccc(C)c(Nc4nccc(-c5cccnc5)n4)c3)cc(C(F)(F)F)c2)cn1 [nilotinib] + CCCS(=O)(=O)Nc1ccc(F)c(C(=O)c2c[nH]c3ncc(Cl)cc23)c1F [PLX4720] (first compound 0.2 µM, partner dose 0.08 µM) | 123% |
| O=C(Nc1cc(C(F)(F)F)cc(C(F)(F)F)c1)c1cc(Cl)ccc1O + CC(=O)O[C@@]12CO[C@@H]1C[C@H](O)[C@@]1(C)C(=O)[C@H](O)C3=C(C)[C@@H](OC(=O)[C@H](O)[C@@H](NC(=O)OC(C)(C)C)c4ccccc4)C[C@@](O)([C@@H](OC(=O)c4ccccc4)[C@H]21)C3(C)C [Docetaxel] (first compound 0.016 µM, partner dose 0.0001 µM) | 125% |
| O=C(/C=C/c1cccnc1)NCCCCC1CCN(C(=O)c2ccccc2)CC1 + Nc1nc(F)nc2c1ncn2[C@@H]1O[C@H](CO)[C@@H](O)[C@@H]1O [fludarabine] (first compound 0.01 µM, partner dose 0.2 µM) | 202% |
| N#CC[C@H](C1CCCC1)n1cc(-c2ncnc3[nH]ccc23)cn1 [ruxolitinib] + NC1(c2ccc(-c3nc4ccn5c(=O)[nH]nc5c4cc3-c3ccccc3)cc2)CCC1 [MK2206] (first compound 1 µM, partner dose 0.4 µM) | 96.7% |
| CCCCCCCCCCCCCCCCCCOP(=O)([O-])OC1CC[N+](C)(C)CC1 [Perifosine] + Cn1c(=O)n(-c2ccc(C(C)(C)C#N)cc2)c2c3cc(-c4cnc5ccccc5c4)ccc3ncc21 [NVP-BEZ235] (first compound 0.4 µM, partner dose 0.004 µM) | 105% |
| CC[C@]1(O)C[C@H]2CN(CCc3c([nH]c4ccccc34)[C@@](C(=O)OC)(c3cc4c(cc3OC)N(C=O)[C@H]3[C@@](O)(C(=O)OC)[C@H](OC(C)=O)[C@]5(CC)C=CCN6CC[C@]43[C@@H]65)C2)C1 [vincristine] + CC(=O)O[C@@]12CO[C@@H]1C[C@H](O)[C@@]1(C)C(=O)[C@H](O)C3=C(C)[C@@H](OC(=O)[C@H](O)[C@@H](NC(=O)OC(C)(C)C)c4ccccc4)C[C@@](O)([C@@H](OC(=O)c4ccccc4)[C@H]21)C3(C)C [Docetaxel] (first compound 0.0001 µM, partner dose 0.0001 µM) | 165% |
| CCCCCCCCCCCCCCCCCCOP(=O)([O-])OC1CC[N+](C)(C)CC1 [Perifosine] + CO[C@H]1C[C@@H]2CC[C@@H](C)[C@@](O)(O2)C(=O)C(=O)N2CCCC[C@H]2C(=O)O[C@H]([C@H](C)C[C@@H]2CC[C@@H](OCCO)[C@H](OC)C2)CC(=O)[C@H](C)/C=C(\C)[C@@H](O)[C@@H](OC)C(=O)[C@H](C)C[C@H](C)/C=C/C=C/C=C/1C [everolimus] (first compound 0.4 µM, partner dose 0.02 µM) | 49.7% |
| Cc1ccc(Nc2nccc(N(C)c3ccc4c(C)n(C)nc4c3)n2)cc1S(N)(=O)=O [Pazopanib] + CS(=O)(=O)CCNCc1ccc(-c2ccc3ncnc(Nc4ccc(OCc5cccc(F)c5)c(Cl)c4)c3c2)o1 [lapatinib] (first compound 0.4 µM, partner dose 0.8 µM) | 199% |
| N#CC[C@H](C1CCCC1)n1cc(-c2ncnc3[nH]ccc23)cn1 [ruxolitinib] + C[C@]1(c2nc3c(C(N)=O)cccc3[nH]2)CCCN1 [Veliparib] (first compound 1 µM, partner dose 1.4 µM) | 813% |
| CC[C@]1(O)C[C@H]2CN(CCc3c([nH]c4ccccc34)[C@@](C(=O)OC)(c3cc4c(cc3OC)N(C=O)[C@H]3[C@@](O)(C(=O)OC)[C@H](OC(C)=O)[C@]5(CC)C=CCN6CC[C@]43[C@@H]65)C2)C1 [vincristine] + Cn1cnc2c(F)c(Nc3ccc(Br)cc3Cl)c(C(=O)NOCCO)cc21 [selumetinib] (first compound 0.0001 µM, partner dose 0.015 µM) | 101% |
| CC[C@]1(O)C[C@H]2CN(CCc3c([nH]c4ccccc34)[C@@](C(=O)OC)(c3cc4c(cc3OC)N(C=O)[C@H]3[C@@](O)(C(=O)OC)[C@H](OC(C)=O)[C@]5(CC)C=CCN6CC[C@]43[C@@H]65)C2)C1 [vincristine] + Nc1cccc2c1CN(C1CCC(=O)NC1=O)C2=O [lenalidomide] (first compound 0.0001 µM, partner dose 1 µM) | 83.9% |
| N#CC[C@H](C1CCCC1)n1cc(-c2ncnc3[nH]ccc23)cn1 [ruxolitinib] + CCN(CC)CCNC(=O)c1c(C)[nH]c(/C=C2\C(=O)Nc3ccc(F)cc32)c1C [sunitinib] (first compound 1 µM, partner dose 0.4 µM) | 74.2% |
| COc1cc([C@@H]2c3cc4c(cc3[C@@H](O[C@@H]3O[C@@H]5CO[C@@H](C)O[C@H]5[C@H](O)[C@H]3O)[C@H]3COC(=O)[C@H]23)OCO4)cc(OC)c1O [etoposide] + O=C(/C=C/c1cccnc1)NCCCCC1CCN(C(=O)c2ccccc2)CC1 [FK866] (first compound 0.02 µM, partner dose 0.01 µM) | 56.1% |
| O=c1[nH]nc(Sc2ncc([N+](=O)[O-])s2)n1-c1ccc2c(c1)OCCO2 + CC(=O)O[C@@]12CO[C@@H]1C[C@H](O)[C@@]1(C)C(=O)[C@H](O)C3=C(C)[C@@H](OC(=O)[C@H](O)[C@@H](NC(=O)OC(C)(C)C)c4ccccc4)C[C@@](O)([C@@H](OC(=O)c4ccccc4)[C@H]21)C3(C)C [Docetaxel] (first compound 0.2 µM, partner dose 0.0001 µM) | 139% |
| N#CC[C@H](C1CCCC1)n1cc(-c2ncnc3[nH]ccc23)cn1 [ruxolitinib] + NC(=O)c1ccc(N(C(N)=O)c2c(F)cccc2F)nc1-c1ccc(F)cc1F [VX702] (first compound 1 µM, partner dose 0.4 µM) | 37.8% |
| N#CC[C@H](C1CCCC1)n1cc(-c2ncnc3[nH]ccc23)cn1 [ruxolitinib] + Cn1sc(=O)n(Cc2ccccc2)c1=O [TDZD-8] (first compound 1 µM, partner dose 0.4 µM) | 58.7% |
| CC[C@]1(O)C[C@H]2CN(CCc3c([nH]c4ccccc34)[C@@](C(=O)OC)(c3cc4c(cc3OC)N(C=O)[C@H]3[C@@](O)(C(=O)OC)[C@H](OC(C)=O)[C@]5(CC)C=CCN6CC[C@]43[C@@H]65)C2)C1 [vincristine] + C[C@@H](Oc1cc(-c2cnn(C3CCNCC3)c2)cnc1N)c1c(Cl)ccc(F)c1Cl [Crizotinib] (first compound 0.0001 µM, partner dose 0.2 µM) | 159% |
| O=c1[nH]nc(Sc2ncc([N+](=O)[O-])s2)n1-c1ccc2c(c1)OCCO2 + CN(c1ncccc1CNc1nc(Nc2ccc3c(c2)CC(=O)N3)ncc1C(F)(F)F)S(C)(=O)=O [PF562271] (first compound 0.2 µM, partner dose 0.08 µM) | 89.5% |
| O=C(Nc1cc(C(F)(F)F)cc(C(F)(F)F)c1)c1cc(Cl)ccc1O + Nc1ccn([C@@H]2O[C@H](CO)[C@@H](O)C2(F)F)c(=O)n1 [gemcitabine] (first compound 0.016 µM, partner dose 0.0004 µM) | 84% |

Single values from the entries so far:
cleaved PARP positive nuclei fraction, N#CC[C@H](C1CCCC1)n1cc(-c2ncnc3[nH]ccc23)cn1 [ruxolitinib] + NC1(c2ccc(-c3nc4ccn5c(=O)[nH]nc5c4cc3-c3ccccc3)cc2)CCC1 [MK2206] (first compound 1 µM, partner dose 0.4 µM) is entered as 96.7%
cleaved PARP positive nuclei fraction, O=c1[nH]nc(Sc2ncc([N+](=O)[O-])s2)n1-c1ccc2c(c1)OCCO2 + CC(=O)O[C@@]12CO[C@@H]1C[C@H](O)[C@@]1(C)C(=O)[C@H](O)C3=C(C)[C@@H](OC(=O)[C@H](O)[C@@H](NC(=O)OC(C)(C)C)c4ccccc4)C[C@@](O)([C@@H](OC(=O)c4ccccc4)[C@H]21)C3(C)C [Docetaxel] (first compound 0.2 µM, partner dose 0.0001 µM) is entered as 139%
